{"source": "patent EP0873137B1", "about": "“COMPOSITIONS INCLUDING CALCIUM INFLUX BLOCKERS FOR INHIBITING CELL GROWTH” (The Wellesley Hospital Foundation, priority 1996, dated 1997)", "test_system": "32D-kit cells", "assay": "Cell death assay (Trypan blue exclusion) in 32D-kit cells", "type": "cell-based", "details": "combined with SLF; not shown; cell type not stated", "description": "Figures 2A and 2B show induction of cell death in 32D-kit or p815 cells with SLF plus Ca^2+ influx blockers. 32D-kit (Figure 2A) or p815 (Figure 2B) cells were incubated with either SLF (solid bars) or IL-3 (striped bars) plus the indicated concentration of Ca^2+ influx blocker. Cell death was determined by Trypan Blue exclusion after 18 hours in culture.\n32D-kit cells were incubated for 18 hours with SLF and 5µM econazole and oleic acid (solid bars), or with SLF and 5µM econazole and elaidic acid (hatched bars), or IL-3 and 5 µM econazole and oleic acid (stippled bars). The proportion of dead cells was determined by Trypan Blue exclusion.\nFigures 6A and 6B show the effect of ionomycin on apoptosis induced by SLF and Ca^2+ influx blacker. […] The proportion of dead cells was determined by Trypan Blue exclusion.\nIn additional cultures, IL-3 alone or no factor was added and cell viability was similarly tested. The effect on cell viability of adding 25 or 250 µM YVAD-CHO was also evaluated in separate cultures in which no additional factors were added.\n32D-kit cells were incubated with either SLF in the absence of YVAD-CHO (circles), or with SLF in the presence of 25 µM YVAD-CHO. […] The proportion of dead cells was evaluated by Trypan Blue exclusion after 18 hours in culture […]", "note": "For at least one compound, name, drawing or mass did not settle the structure."}
{"smiles": "COC(=O)C1=C(C)NC(C)=C(C(=O)OC)C1c1ccccc1[N+](=O)[O-]", "note": "[nifedipine]", "values": [{"measurement": "inducing cell death", "result": "ineffective in inducing cell death"}]}
